# Experimental data: ChEMBL document CHEMBL4316593 (Eur J Med Chem, 2019)
# This continues a long series; more values of the same kind are listed elsewhere.
# How the values were obtained:
# Format in all cases: cell-based
# Settings in all cases: U-87MG ATCC
# [1] = Inhibition of RTK/PI3K/AKT/mTOR signaling in human U87 cells assessed as down regulation of STAT1 gene expression at cytotoxic IC50 measured after 48 hrs relative to control
# [2] = Inhibition of RTK/PI3K/AKT/mTOR signaling in human U87 cells assessed as down regulation of EAF1 gene expression at cytotoxic IC50 measured after 48 hrs relative to control
# [3] = Inhibition of RTK/PI3K/AKT/mTOR signaling in human U87 cells assessed as down regulation of NIPBL gene expression at cytotoxic IC50 measured after 48 hrs relative to control
# [4] = Inhibition of RTK/PI3K/AKT/mTOR signaling in human U87 cells assessed as down regulation of CORO2B gene expression at cytotoxic IC50 measured after 48 hrs relative to control
# [5] = Inhibition of RTK/PI3K/AKT/mTOR signaling in human U87 cells assessed as up regulation of family with sequence similarity 71 member E1 gene expression at cytotoxic IC50 measured after 48 hrs relative to control
# [6] = Inhibition of RTK/PI3K/AKT/mTOR signaling in human U87 cells assessed as up regulation of glycogen phosphorylase L gene expression at cytotoxic IC50 measured after 48 hrs relative to control
# [7] = Inhibition of RTK/PI3K/AKT/mTOR signaling in human U87 cells assessed as up regulation of TRIP10 gene expression at cytotoxic IC50 measured after 48 hrs relative to control
# [8] = Inhibition of RTK/PI3K/AKT/mTOR signaling in human U87 cells assessed as up regulation of NRP1 gene expression at cytotoxic IC50 measured after 48 hrs relative to control
# [9] = Inhibition of RTK/PI3K/AKT/mTOR signaling in human U87 cells assessed as down regulation of DNAJB1 gene expression at cytotoxic IC50 measured after 48 hrs relative to control
# [10] = Inhibition of RTK/PI3K/AKT/mTOR signaling in human U87 cells assessed as down regulation of RAP1B gene expression at cytotoxic IC50 measured after 48 hrs relative to control
# [11] = Inhibition of RTK/PI3K/AKT/mTOR signaling in human U87 cells assessed as down regulation of TBPL1 gene expression at cytotoxic IC50 measured after 48 hrs relative to control
# [12] = Inhibition of RTK/PI3K/AKT/mTOR signaling in human U87 cells assessed as down regulation of PIKFYVE gene expression at cytotoxic IC50 measured after 48 hrs relative to control
# [13] = Inhibition of RTK/PI3K/AKT/mTOR signaling in human U87 cells assessed as up regulation of KLHDC7B gene expression at cytotoxic IC50 measured after 48 hrs relative to control
# [14] = Inhibition of RTK/PI3K/AKT/mTOR signaling in human U87 cells assessed as up regulation of CERS2 gene expression at cytotoxic IC50 measured after 48 hrs relative to control
# [15] = Inhibition of RTK/PI3K/AKT/mTOR signaling in human U87 cells assessed as up regulation of GAS7 gene expression at cytotoxic IC50 measured after 48 hrs relative to control
# [16] = Inhibition of RTK/PI3K/AKT/mTOR signaling in human U87 cells assessed as up regulation of EPHA2 gene expression at cytotoxic IC50 measured after 48 hrs relative to control
# [17] = Inhibition of RTK/PI3K/AKT/mTOR signaling in human U87 cells assessed as up regulation of lysine acetyltransferase 2A gene expression at cytotoxic IC50 measured after 48 hrs relative to control
# [18] = Inhibition of RTK/PI3K/AKT/mTOR signaling in human U87 cells assessed as down regulation of PBX3 gene expression at cytotoxic IC50 measured after 48 hrs relative to control
# [19] = Inhibition of RTK/PI3K/AKT/mTOR signaling in human U87 cells assessed as down regulation of DNAJC6 gene expression at cytotoxic IC50 measured after 48 hrs relative to control
# [20] = Inhibition of RTK/PI3K/AKT/mTOR signaling in human U87 cells assessed as up regulation of tryptophanyl-tRNA synthetase gene expression at cytotoxic IC50 measured after 48 hrs relative to control
# [21] = Inhibition of RTK/PI3K/AKT/mTOR signaling in human U87 cells assessed as up regulation of mitogen-activated protein kinase 15 gene expression at cytotoxic IC50 measured after 48 hrs relative to control
# [22] = Inhibition of RTK/PI3K/AKT/mTOR signaling in human U87 cells assessed as down regulation of FAM111A gene expression at cytotoxic IC50 measured after 48 hrs relative to control
# [23] = Inhibition of RTK/PI3K/AKT/mTOR signaling in human U87 cells assessed as down regulation of ZNF367 gene expression at cytotoxic IC50 measured after 48 hrs relative to control
# [24] = Inhibition of RTK/PI3K/AKT/mTOR signaling in human U87 cells assessed as down regulation of EMC3 gene expression at cytotoxic IC50 measured after 48 hrs relative to control
# [25] = Inhibition of RTK/PI3K/AKT/mTOR signaling in human U87 cells assessed as down regulation of KIAA0907 gene expression at cytotoxic IC50 measured after 48 hrs relative to control
# [26] = Inhibition of RTK/PI3K/AKT/mTOR signaling in human U87 cells assessed as up regulation of DMKN gene expression at cytotoxic IC50 measured after 48 hrs relative to control
# [27] = Inhibition of RTK/PI3K/AKT/mTOR signaling in human U87 cells assessed as up regulation of digestive organ expansion factor homolog (zebrafish) gene expression at cytotoxic IC50 measured after 48 hrs relative to control
# [28] = Inhibition of RTK/PI3K/AKT/mTOR signaling in human U87 cells assessed as down regulation of ATP5E gene expression at cytotoxic IC50 measured after 48 hrs relative to control
# [29] = Inhibition of RTK/PI3K/AKT/mTOR signaling in human U87 cells assessed as up regulation of PPFIBP1 gene expression at cytotoxic IC50 measured after 48 hrs relative to control
# [30] = Inhibition of RTK/PI3K/AKT/mTOR signaling in human U87 cells assessed as up regulation of solute carrier family 38 member 10 gene expression at cytotoxic IC50 measured after 48 hrs relative to control
# [31] = Inhibition of RTK/PI3K/AKT/mTOR signaling in human U87 cells assessed as up regulation of preferentially expressed antigen in melanoma gene expression at cytotoxic IC50 measured after 48 hrs relative to control
# [32] = Inhibition of RTK/PI3K/AKT/mTOR signaling in human U87 cells assessed as down regulation of SBDS gene expression at cytotoxic IC50 measured after 48 hrs relative to control
smiles,measurement,setting,value
CC(=O)C(=NNc1ccccc1C#N)C(C)=O,log2FC,[1],-0.834
same,log2FC,[2],-0.976
same,log2FC,[3],-0.743
same,log2FC,[4],-2.13
same,log2FC,[5],1.47
same,log2FC,[6],0.716
same,log2FC,[7],0.587
same,log2FC,[8],3.4
same,log2FC,[9],-1.31
same,log2FC,[10],-0.663
same,log2FC,[11],-0.932
same,log2FC,[12],-0.618
same,log2FC,[13],4.14
same,log2FC,[14],0.393
same,log2FC,[15],1.72
same,log2FC,[16],0.418
same,log2FC,[17],0.897
same,log2FC,[18],-1.09
same,log2FC,[19],-1.28
same,log2FC,[20],0.692
same,log2FC,[21],1.52
same,log2FC,[22],-1.27
same,log2FC,[23],-1.56
same,log2FC,[24],-0.845
same,log2FC,[25],-0.518
same,log2FC,[26],0.637
same,log2FC,[27],0.744
same,log2FC,[28],-0.549
same,log2FC,[29],0.485
same,log2FC,[30],0.658
same,log2FC,[31],1.02
same,log2FC,[32],-0.993
